Results are given in words; binding and its absence hold for the method and conditions named. In cells and extracts the contact can be indirect. Some results given as binding are weak or reduced against the parent protein; the word gives no strength.
Target: T1, 20S proteasome subunit β5 (mouse (endogenous in MIN6)) (UniProt O55234)
T1 sequence: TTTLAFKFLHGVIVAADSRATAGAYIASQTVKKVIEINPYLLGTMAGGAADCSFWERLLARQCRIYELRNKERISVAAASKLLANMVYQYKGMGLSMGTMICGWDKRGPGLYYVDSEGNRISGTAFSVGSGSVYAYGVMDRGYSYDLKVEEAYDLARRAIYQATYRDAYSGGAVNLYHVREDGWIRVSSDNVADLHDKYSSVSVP
Test: co-IP; extracts of MIN6 cells, IFNβ treated (24 h) or untreated; immuno-precipitation with the antibodies indicated in the figure, then western blot

B1: immunoproteasome 20S subunit β5i (protein, UniProt P28063 73-276)
chain: TTTLAFKFQHGVIVAVDSRATAGSYISSLRMNKVIEINPYLLGTMSGCAADCQYWERLLAKECRLYYLRNGERISVSAASKLLSNMMLQYRGMGLSMGSMICGWDKKGPGLYYVDDNGTRLSGQMFSTGSGNTYAYGVMDSGYRQDLSPEEAYDLGRRAIAYATHRDNYSGGVVNMYHMKEDGWVKVESSDVSDLLYKYGEAAL
Question: B1 was tested. Which binding did it give?
Answer: binds
